Experimental findings from patent US20250042956A1 are described below.

Protein sequences, listed by entry. Tags and fused reporters are not part of them.
UniProt Q9M658: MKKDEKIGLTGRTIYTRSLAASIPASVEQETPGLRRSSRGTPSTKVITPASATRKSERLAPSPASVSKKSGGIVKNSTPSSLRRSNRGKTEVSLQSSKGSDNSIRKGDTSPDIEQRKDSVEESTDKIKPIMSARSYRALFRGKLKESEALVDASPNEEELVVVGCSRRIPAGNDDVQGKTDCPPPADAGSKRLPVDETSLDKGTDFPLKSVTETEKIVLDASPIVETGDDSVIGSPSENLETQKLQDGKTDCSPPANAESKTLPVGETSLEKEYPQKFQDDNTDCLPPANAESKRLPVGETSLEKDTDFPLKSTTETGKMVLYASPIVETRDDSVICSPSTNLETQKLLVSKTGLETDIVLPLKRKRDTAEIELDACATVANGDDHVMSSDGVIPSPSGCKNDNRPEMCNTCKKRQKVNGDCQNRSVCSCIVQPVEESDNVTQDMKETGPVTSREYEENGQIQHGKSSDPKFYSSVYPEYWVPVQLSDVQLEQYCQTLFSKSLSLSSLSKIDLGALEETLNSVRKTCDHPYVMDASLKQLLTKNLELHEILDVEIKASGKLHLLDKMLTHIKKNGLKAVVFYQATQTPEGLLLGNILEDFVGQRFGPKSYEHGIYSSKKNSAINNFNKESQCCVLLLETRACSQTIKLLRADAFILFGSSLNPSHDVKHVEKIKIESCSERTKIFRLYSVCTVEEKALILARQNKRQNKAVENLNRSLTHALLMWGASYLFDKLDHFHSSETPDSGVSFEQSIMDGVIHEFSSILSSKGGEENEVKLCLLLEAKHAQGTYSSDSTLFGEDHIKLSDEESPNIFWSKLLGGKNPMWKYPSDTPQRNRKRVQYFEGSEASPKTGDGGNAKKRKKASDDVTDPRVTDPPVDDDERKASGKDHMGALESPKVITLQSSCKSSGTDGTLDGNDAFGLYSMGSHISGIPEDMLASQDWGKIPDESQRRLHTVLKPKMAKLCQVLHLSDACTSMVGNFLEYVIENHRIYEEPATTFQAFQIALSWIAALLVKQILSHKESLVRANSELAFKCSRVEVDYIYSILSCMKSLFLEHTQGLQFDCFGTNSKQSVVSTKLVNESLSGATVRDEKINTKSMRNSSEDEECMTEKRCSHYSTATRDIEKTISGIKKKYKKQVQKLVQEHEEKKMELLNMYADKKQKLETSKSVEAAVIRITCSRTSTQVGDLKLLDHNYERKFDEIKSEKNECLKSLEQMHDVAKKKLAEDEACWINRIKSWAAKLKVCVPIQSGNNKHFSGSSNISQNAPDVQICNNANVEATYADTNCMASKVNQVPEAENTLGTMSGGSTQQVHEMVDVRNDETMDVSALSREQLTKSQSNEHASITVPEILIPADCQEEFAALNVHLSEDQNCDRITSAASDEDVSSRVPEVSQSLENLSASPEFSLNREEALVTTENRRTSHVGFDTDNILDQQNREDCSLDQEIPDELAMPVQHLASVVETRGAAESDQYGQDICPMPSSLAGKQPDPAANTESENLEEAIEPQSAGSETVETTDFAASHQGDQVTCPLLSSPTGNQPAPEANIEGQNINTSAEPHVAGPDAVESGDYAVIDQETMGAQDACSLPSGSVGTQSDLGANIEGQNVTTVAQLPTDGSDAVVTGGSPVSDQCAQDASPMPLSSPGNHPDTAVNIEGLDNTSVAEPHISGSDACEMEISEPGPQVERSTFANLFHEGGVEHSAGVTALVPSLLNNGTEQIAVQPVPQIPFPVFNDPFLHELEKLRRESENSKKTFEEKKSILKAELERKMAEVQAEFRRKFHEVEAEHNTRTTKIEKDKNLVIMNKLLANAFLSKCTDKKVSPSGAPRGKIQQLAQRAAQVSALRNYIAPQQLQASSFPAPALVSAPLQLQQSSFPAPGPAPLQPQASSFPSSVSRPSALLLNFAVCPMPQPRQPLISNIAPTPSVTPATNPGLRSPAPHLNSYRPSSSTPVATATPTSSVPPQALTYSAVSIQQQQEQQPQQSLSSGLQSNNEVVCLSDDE

Results are given in words; binding and its absence hold for the method and conditions named. Binding seen in cells or lysates may run through a third protein. Some results given as binding are weak or reduced against the parent protein; the word gives no strength.

The assay deals with T1, PIAL2 (Arabidopsis thaliana) (UniProt F4JYG0).
T1 sequence: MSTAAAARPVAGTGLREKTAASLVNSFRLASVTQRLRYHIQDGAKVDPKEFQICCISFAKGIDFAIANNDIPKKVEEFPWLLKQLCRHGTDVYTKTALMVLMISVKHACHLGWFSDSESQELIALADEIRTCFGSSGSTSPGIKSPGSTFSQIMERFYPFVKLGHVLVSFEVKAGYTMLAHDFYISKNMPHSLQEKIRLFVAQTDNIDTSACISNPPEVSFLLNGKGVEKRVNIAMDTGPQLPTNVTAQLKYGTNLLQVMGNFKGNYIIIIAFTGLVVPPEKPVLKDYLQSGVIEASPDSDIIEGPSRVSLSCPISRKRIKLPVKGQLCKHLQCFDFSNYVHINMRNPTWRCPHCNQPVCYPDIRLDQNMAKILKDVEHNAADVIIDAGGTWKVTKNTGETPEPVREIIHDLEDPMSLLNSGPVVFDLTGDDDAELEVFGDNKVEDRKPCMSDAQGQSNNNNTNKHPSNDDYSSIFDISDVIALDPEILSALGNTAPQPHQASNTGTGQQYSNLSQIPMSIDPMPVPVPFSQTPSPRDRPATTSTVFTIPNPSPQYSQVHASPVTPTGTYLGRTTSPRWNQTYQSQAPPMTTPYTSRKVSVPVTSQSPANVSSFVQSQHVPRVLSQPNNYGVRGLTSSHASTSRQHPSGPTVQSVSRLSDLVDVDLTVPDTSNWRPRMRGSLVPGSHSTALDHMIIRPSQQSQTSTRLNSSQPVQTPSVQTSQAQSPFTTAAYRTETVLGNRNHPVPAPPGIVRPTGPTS
Briefly: IP-MS.

Turning to “epitope tagged MOM1 (from UniProt Q9M658 1-2001)”, the binding result is given as “binds”.
